In patent US8017315:
No constants are given. Whether binding was seen depends on the method and setting. Some binding calls cover weakened binding; strength is not graded here. Blank lines part the entries; values can stand above or below the substance they belong to.

The chains behind the UniProt entries cited, without tags or fusion partners. Where a name states a change or a piece, a line headed by the entry shows the natural chain unless it says otherwise. Residues count along the entry.
UniProt P08238: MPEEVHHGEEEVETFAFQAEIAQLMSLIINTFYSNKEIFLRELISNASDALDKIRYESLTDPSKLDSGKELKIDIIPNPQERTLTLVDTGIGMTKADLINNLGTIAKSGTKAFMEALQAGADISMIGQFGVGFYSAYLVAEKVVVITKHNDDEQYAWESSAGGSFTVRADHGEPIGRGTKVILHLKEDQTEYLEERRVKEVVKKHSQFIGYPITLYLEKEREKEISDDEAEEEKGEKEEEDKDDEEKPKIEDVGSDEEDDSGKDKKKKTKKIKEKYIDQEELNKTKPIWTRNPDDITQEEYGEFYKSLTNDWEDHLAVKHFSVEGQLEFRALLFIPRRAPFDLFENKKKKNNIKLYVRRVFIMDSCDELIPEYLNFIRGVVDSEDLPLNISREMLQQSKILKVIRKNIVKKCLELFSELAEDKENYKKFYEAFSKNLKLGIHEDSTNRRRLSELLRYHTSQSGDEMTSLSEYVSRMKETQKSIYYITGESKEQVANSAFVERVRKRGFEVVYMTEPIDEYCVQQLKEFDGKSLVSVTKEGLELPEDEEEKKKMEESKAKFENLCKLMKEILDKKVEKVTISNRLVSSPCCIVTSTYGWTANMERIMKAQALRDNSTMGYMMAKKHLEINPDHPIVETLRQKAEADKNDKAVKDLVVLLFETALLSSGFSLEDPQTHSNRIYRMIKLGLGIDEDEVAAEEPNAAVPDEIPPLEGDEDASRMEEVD
UniProt P15941, residues 24-1255: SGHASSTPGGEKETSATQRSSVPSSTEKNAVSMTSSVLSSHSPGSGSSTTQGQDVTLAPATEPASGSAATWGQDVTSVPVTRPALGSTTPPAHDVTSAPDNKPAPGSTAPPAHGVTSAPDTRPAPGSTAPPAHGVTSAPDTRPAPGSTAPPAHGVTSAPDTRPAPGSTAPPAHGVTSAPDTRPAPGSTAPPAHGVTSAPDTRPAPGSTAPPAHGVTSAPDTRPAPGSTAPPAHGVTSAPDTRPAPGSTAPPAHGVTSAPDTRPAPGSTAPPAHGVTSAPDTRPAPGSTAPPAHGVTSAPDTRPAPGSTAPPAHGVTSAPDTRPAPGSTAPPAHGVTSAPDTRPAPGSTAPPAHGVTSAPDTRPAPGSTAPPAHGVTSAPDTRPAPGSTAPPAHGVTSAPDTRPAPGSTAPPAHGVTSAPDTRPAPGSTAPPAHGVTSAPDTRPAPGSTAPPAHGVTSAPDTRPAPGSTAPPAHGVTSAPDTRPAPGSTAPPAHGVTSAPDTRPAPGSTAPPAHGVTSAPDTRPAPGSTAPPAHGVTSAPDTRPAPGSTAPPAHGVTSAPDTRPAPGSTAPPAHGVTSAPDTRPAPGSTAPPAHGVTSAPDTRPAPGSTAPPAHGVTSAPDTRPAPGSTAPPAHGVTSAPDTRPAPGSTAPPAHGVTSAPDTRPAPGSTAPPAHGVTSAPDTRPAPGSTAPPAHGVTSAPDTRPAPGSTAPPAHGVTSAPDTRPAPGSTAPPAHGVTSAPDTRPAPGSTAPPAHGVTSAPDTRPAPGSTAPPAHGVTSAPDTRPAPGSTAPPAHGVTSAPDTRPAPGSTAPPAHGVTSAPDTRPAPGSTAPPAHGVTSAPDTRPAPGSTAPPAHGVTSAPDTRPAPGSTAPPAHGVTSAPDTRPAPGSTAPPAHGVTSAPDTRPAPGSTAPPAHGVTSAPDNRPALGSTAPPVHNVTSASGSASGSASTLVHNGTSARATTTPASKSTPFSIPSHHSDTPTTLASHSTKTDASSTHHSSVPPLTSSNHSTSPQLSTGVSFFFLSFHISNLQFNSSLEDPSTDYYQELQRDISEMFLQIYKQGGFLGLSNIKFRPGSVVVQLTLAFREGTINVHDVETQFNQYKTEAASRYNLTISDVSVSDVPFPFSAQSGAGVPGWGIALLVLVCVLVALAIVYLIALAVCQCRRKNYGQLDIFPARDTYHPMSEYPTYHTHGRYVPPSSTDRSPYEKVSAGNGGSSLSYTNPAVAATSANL

Assays:
[1] = molecular target: HSP90 (endogenous, in lysates of human cells) (human) (UniProt P08238); assay: anti-Flag affinity purification from HeLa cells, glycerol gradient, SDS-PAGE, MALDI-TOF-MS
[2] = molecular target: HSP90 (endogenous, in lysates of human cells) (human) (UniProt P08238); assay: anti-Flag immunoprecipitation from HCT116/Flag-MUC1-CD lysates, anti-HSP90 immunoblot
[3] = molecular target: HSP90 (endogenous, in lysates of human cells) (human) (UniProt P08238); assay: anti-Flag immunoprecipitation from HCT116/Flag-MUC1-CD cells with or without HRG, immunoblot
[4] = molecular target: HSP90 (endogenous, in lysates of human cells) (human) (UniProt P08238); assay: anti-MUC1-N immunoprecipitation from whole cell lysates and purified cell membranes of HCT116/MUC1 cells, anti-HSP90 immunoblot
[5] = molecular target: HSP90 (endogenous, in lysates of human cells) (human) (UniProt P08238); assay: anti-MUC1-N immunoprecipitation from ZR-75-1 lysates, anti-HSP90 immunoblot
[6] = molecular target: HSP90 (endogenous, in lysates of human cells) (human) (UniProt P08238); assay: anti-HSP90 immunoprecipitation from control and HRG-treated HCT116/MUC1 cells, immunoblot for MUC1
[7] = molecular target: HSP90 (endogenous, in lysates of human cells) (human) (UniProt P08238); assay: anti-MUC1-N immunoprecipitation from MCF-7 lysates, anti-HSP90 immunoblot
[8] = molecular target: HSP90 (endogenous, in lysates of human cells) (human) (UniProt P08238); assay: anti-MUC1-N immunoprecipitation from transfected 293 cells with or without c-Src, immunoblot
[9] = molecular target: HSP90 (endogenous, in lysates of human cells) (human) (UniProt P08238); assay: anti-MUC1-N immunoprecipitation from HCT116/MUC1 cells with or without HRG, PP2 or GA, anti-HSP90 immunoblot
[10] = molecular target: HSP90 (endogenous, in lysates of human cells) (human) (UniProt P08238); assay: anti-MUC1-N immunoprecipitation from HCT116/MUC1 lysates, anti-HSP90 immunoblot
[11] = molecular target: HSP90 (endogenous, in lysates of human cells) (human) (UniProt P08238); assay: anti-HSP90 immunoprecipitation from MCF-7 lysates, anti-MUC1-C immunoblot
[12] = molecular target: HSP90 (endogenous, in lysates of human cells) (human) (UniProt P08238); assay: anti-HSP90 immunoprecipitation from ZR-75-1 lysates, anti-MUC1-C immunoblot
[13] = molecular target: HSP90 (endogenous, in lysates of human cells) (human) (UniProt P08238); assay: anti-HSP90 immunoprecipitation from cytosolic fractions of HCT116/MUC1 cells, anti-MUC1-C immunoblot

binding [1]: binds
Substance: Flag-HA-tagged MUC1-C (pOZ-N-MUC1) (from UniProt P15941 1097-1255)

binding [2]: binds | binding [3]: binds
Substance: Flag-MUC1-CD (from UniProt P15941 1184-1255)

binding [4]: binds | binding [5]: binds | binding [6]: binds | binding [7]: binds | binding [8]: binds | binding [9]: binds | binding [10]: binds
Substance: MUC1 (human, full length, expressed in cells) (from UniProt P15941 24-1255)

binding [11]: binds | binding [12]: binds | binding [13]: binds
Substance: MUC1-C (C-terminal subunit of MUC1, in cells) (from UniProt P15941 1098-1255)
